This is one part of the list.
Legend:
Experiment in all cases: log2 fold change, soluble protein after heating vs DMSO (PISA); higher = thermal stabilisation; K562 cells, 10 uM, 30 min; active = over 0.2 and 3.5 SD of the protein, either way, in both replicates (recomputed)
bafetinib = compound: Cc1ccc(NC(=O)c2ccc(CN3CC[C@H](N(C)C)C3)c(C(F)(F)F)c2)cc1Nc1nccc(-c2cncnc2)n1 [bafetinib]
Outline: (§1)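 K562 cells at 2×10^6 cells/mL were treated with 10 μM compound for 30 min. Aliquots were heated for 3 min across 48°C-58°C, pooled, and extracted in PBS with 0.5% NP-40 at 4°C; soluble protein was the supernatant after 21,000xg for 90 min. Soluble protein was quantified by TMTpro 16plex LC-MS/MS with channel sums equalised, and reported as log2 fold change in thermal stability against DMSO controls, with values from duplicates.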

The chains behind the UniProt entries cited, without tags or fusion partners. Where a name states a change or a piece, a line headed by the entry shows the natural chain unless it says otherwise.
UniProt Q53H96: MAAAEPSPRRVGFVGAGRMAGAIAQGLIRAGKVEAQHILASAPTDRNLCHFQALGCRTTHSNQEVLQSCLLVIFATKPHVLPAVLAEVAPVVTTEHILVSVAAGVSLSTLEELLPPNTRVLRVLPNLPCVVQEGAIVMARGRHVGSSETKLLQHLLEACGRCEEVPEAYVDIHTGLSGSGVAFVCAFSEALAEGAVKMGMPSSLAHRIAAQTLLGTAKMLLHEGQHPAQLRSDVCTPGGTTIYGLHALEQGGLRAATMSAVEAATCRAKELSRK
UniProt O75365, whole entry, looked up: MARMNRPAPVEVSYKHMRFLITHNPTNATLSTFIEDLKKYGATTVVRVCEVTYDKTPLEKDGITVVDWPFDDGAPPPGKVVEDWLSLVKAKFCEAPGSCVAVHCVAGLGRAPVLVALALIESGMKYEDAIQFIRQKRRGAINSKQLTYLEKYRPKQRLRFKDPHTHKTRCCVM
UniProt O00231, whole entry, looked up: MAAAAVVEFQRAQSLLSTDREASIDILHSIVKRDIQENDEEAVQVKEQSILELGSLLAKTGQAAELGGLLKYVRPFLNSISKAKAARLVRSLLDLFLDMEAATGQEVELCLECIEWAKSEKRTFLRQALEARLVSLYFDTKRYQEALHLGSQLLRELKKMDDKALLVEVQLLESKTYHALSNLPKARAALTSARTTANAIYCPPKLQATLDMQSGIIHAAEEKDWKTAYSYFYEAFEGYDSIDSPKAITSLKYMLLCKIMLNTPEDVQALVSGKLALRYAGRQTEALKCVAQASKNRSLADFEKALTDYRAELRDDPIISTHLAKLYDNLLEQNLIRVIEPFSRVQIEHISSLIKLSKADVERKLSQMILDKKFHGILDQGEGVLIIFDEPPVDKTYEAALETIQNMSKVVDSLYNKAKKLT
UniProt P62333, whole entry, looked up: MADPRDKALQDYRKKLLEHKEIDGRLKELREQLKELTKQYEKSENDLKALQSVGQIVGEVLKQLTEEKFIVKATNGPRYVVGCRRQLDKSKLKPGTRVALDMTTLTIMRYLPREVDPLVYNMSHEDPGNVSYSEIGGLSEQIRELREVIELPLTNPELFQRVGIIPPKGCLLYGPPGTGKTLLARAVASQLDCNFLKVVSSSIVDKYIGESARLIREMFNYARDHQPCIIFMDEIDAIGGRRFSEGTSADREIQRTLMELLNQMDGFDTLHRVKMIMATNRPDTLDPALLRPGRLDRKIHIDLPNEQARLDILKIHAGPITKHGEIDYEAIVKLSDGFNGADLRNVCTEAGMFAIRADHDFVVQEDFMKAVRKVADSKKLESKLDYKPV
UniProt P06737: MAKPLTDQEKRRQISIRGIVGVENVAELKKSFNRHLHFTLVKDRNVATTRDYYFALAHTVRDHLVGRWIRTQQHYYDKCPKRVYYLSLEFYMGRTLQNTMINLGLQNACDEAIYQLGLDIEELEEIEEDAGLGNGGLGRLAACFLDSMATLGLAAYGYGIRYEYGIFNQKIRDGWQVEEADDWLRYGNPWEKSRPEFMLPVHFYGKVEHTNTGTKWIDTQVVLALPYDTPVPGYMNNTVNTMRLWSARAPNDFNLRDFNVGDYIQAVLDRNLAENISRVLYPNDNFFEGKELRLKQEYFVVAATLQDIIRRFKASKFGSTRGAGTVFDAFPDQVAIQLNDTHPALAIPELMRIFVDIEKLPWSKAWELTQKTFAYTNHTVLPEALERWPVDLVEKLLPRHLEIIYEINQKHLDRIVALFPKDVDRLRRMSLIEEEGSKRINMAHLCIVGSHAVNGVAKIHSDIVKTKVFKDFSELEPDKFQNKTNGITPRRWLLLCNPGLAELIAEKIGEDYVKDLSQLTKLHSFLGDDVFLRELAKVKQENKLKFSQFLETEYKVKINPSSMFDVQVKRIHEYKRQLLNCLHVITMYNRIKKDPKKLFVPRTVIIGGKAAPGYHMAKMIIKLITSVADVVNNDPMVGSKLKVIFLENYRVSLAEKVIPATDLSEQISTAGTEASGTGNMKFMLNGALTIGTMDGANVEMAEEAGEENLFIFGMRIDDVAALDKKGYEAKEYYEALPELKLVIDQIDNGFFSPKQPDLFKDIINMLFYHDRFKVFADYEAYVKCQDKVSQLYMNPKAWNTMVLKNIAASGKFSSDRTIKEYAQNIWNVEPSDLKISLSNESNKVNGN
UniProt Q06323: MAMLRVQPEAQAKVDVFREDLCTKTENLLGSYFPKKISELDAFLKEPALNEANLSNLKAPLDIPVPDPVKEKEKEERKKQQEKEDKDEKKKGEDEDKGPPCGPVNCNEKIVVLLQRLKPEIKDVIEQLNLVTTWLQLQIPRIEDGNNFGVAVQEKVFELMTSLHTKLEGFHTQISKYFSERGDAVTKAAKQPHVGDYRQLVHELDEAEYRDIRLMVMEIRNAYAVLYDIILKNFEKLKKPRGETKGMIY
UniProt Q9NXS2: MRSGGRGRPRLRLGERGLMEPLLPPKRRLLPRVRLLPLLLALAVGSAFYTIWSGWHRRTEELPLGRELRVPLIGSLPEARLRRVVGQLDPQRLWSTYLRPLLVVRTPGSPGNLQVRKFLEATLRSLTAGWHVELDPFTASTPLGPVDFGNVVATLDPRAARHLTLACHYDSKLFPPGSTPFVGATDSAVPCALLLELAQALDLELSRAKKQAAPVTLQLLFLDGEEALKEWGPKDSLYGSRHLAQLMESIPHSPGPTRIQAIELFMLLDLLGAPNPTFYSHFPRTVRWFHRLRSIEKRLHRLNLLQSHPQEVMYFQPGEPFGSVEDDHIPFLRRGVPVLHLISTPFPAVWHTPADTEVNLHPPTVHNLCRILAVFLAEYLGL
UniProt Q9NRG1: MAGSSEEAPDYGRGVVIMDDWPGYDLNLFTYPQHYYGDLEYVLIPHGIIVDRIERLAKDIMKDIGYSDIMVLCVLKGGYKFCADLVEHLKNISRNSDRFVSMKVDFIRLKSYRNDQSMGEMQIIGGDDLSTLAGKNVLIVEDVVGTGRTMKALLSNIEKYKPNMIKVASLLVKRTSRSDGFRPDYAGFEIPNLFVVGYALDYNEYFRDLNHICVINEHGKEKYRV
UniProt Q9BXR0: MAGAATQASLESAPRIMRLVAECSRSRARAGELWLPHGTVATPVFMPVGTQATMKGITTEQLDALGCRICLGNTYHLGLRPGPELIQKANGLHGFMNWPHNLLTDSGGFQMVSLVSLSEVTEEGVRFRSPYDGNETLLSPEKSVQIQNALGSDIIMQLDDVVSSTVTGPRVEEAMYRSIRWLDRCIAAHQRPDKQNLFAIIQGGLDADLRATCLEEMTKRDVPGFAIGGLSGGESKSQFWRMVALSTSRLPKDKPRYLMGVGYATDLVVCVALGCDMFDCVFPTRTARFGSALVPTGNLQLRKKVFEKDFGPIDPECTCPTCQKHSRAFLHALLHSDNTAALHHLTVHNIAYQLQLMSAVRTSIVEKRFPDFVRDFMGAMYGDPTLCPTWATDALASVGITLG
UniProt Q99460, whole entry, looked up: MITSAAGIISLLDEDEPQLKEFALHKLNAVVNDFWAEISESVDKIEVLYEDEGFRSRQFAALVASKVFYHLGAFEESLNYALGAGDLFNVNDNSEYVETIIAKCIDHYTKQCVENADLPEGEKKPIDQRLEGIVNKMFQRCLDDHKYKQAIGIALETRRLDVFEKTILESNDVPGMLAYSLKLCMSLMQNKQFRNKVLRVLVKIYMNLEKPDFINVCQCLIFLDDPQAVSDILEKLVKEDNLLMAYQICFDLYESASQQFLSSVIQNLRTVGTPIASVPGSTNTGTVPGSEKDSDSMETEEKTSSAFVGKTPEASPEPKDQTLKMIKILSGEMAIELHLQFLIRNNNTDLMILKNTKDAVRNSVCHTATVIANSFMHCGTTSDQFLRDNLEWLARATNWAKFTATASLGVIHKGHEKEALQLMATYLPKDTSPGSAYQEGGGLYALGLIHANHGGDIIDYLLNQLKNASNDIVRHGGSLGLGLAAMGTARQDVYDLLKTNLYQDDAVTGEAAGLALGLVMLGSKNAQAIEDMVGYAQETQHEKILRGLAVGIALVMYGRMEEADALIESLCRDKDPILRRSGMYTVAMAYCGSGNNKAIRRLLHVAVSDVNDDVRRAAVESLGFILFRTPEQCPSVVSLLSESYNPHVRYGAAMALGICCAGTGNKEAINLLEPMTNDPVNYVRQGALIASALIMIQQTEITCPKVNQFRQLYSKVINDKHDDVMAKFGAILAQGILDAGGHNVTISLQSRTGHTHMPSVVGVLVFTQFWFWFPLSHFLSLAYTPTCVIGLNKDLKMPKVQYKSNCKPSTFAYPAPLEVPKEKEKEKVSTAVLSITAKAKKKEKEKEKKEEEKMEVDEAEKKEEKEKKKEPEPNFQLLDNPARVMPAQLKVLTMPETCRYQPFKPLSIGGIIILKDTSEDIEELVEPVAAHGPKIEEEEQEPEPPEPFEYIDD
UniProt Q9H0R6: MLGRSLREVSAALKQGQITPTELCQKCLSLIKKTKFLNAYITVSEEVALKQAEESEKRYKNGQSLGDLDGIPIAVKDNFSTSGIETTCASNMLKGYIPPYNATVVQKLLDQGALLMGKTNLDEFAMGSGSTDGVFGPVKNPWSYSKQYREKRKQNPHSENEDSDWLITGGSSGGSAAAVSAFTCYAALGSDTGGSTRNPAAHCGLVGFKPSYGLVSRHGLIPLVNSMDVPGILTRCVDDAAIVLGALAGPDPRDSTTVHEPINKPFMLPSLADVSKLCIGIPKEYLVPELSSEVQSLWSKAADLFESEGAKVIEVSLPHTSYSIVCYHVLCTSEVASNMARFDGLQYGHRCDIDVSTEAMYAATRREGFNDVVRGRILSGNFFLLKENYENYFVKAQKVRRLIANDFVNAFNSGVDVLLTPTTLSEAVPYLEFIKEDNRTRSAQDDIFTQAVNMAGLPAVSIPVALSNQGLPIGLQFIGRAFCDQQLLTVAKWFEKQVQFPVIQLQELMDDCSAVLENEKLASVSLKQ
UniProt P20618: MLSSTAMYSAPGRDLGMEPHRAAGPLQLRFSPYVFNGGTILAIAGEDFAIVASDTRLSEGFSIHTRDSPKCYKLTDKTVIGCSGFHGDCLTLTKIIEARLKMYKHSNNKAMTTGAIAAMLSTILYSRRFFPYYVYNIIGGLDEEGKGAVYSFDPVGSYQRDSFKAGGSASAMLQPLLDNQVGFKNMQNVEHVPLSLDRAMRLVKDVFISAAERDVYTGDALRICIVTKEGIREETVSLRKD
UniProt Q96C36: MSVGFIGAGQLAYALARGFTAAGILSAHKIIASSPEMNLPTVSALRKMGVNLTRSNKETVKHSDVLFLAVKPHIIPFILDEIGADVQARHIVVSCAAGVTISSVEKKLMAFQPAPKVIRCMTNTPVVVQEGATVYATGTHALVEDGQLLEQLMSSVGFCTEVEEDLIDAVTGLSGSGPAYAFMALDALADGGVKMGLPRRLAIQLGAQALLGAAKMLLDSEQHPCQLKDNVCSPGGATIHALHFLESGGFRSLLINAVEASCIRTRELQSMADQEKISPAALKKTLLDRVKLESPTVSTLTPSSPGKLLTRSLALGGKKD
UniProt Q9H7Z7: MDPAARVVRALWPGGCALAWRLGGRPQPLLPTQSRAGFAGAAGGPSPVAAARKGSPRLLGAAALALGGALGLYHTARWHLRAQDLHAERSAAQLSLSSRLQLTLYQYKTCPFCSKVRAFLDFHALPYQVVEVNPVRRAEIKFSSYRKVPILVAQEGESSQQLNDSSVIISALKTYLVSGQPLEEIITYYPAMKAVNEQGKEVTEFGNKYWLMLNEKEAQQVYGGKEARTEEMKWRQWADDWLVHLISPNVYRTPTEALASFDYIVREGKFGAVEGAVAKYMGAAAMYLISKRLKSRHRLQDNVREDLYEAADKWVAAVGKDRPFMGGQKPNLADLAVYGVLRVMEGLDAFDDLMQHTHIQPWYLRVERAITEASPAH
UniProt O00233: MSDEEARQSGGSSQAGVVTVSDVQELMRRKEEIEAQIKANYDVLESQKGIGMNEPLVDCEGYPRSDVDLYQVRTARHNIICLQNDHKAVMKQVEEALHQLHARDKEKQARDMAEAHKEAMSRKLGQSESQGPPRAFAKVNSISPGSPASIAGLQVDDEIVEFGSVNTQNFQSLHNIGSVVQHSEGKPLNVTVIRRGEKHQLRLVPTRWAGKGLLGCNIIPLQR
UniProt P49720: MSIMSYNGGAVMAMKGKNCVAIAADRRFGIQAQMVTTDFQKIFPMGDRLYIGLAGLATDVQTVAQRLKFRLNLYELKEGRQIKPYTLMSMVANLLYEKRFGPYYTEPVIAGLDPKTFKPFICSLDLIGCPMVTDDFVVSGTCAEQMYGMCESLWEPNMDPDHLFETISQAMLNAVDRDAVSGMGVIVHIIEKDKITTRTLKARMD
UniProt P25788: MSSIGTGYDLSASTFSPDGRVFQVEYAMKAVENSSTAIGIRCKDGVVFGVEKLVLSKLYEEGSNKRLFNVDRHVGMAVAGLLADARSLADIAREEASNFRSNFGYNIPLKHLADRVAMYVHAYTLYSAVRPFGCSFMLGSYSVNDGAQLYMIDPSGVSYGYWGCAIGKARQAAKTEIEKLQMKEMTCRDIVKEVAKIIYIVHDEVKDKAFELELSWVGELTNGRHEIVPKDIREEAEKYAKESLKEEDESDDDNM

[1] = compound: Cc1cccc(CC(=O)N2CCc3c2ccc(-c2cn(C)c4ncnc(N)c24)c3F)n1
Outline: as §1

nilotinib = compound: Cc1cn(-c2cc(NC(=O)c3ccc(C)c(Nc4nccc(-c5cccnc5)n4)c3)cc(C(F)(F)F)c2)cn1 [nilotinib]
Outline: as §1

[2] = compound: Cc1nc(Nc2n[nH]c3c2CN(C(=O)N[C@H](CN(C)C)c2ccccc2)C3(C)C)c2sccc2n1
Outline: as §1

dasatinib = compound: Cc1nc(Nc2ncc(C(=O)Nc3c(C)cccc3Cl)s2)cc(N2CCN(CCO)CC2)n1 [dasatinib]
Outline: as §1

[3] = compound: Cc1ncc(-c2ccnc(Nc3ccc(S(C)(=O)=O)cc3)n2)n1C(C)C
Outline: as §1

[4] = compound: Cn1cc(-c2ccc3c(c2)CCN3C(=O)Cc2cccc(C(F)(F)F)c2)c2c(N)ncnc21
Outline: as §1

[5] = compound: Cn1cc(-c2ccc3nnc(C(F)(F)c4ccc5ncccc5c4)n3n2)cn1
Outline: as §1

tipifarnib = compound: Cn1cncc1[C@@](N)(c1ccc(Cl)cc1)c1ccc2c(c1)c(-c1cccc(Cl)c1)cc(=O)n2C [tipifarnib]
Outline: as §1

mubritinib = compound: FC(F)(F)c1ccc(/C=C/c2nc(COc3ccc(CCCCn4ccnn4)cc3)co2)cc1 [mubritinib]
Outline: as §1

Measured: log2 fold change

PYCR3 (UniProt Q53H96)
inactive: bafetinib 0.004 | [1] 0.011 | nilotinib 0.015 | [2] 0.019 | dasatinib -0.001 | [3] 0.002 | [4] 0.03 | [5] -0.033 | tipifarnib 0.013 | mubritinib 0

PTP4A3 (UniProt O75365)
inactive: bafetinib 0.162

PSRC1 (UniProt Q6PGN9)
inactive: bafetinib 0.045 | [1] 0.013 | nilotinib -0.005 | [2] -0.052 | dasatinib 0.048 | [3] -0.057 | [4] 0.027 | [5] -0.025 | tipifarnib 0.017 | mubritinib 0.023

PSMD11 (UniProt O00231)
inactive: bafetinib 0.15 | [1] 0.042 | nilotinib 0.054 | [2] 0.068 | dasatinib -0.004 | [3] -0.014 | [4] -0.074 | [5] -0.043 | tipifarnib -0.021 | mubritinib -0.054

PSMC6 (UniProt P62333)
inactive: bafetinib 0.069 | [1] 0.008 | nilotinib -0.029 | [2] 0.069 | dasatinib 0.039 | [3] -0.02 | [4] -0.068 | [5] 0.002 | tipifarnib 0.104 | mubritinib -0.048

PTPA (UniProt Q15257)
inactive: bafetinib -0.038 | [1] 0.011 | nilotinib -0.014 | [2] 0.012 | dasatinib -0.014 | [3] -0.002 | [4] 0.034 | [5] 0.03 | tipifarnib 0.013 | mubritinib 0.028

PSMD3 (UniProt O43242)
inactive: bafetinib 0.129 | [1] 0.032 | nilotinib 0.008 | [2] 0.089 | dasatinib 0.004 | [3] -0.012 | [4] -0.064 | [5] -0.018 | tipifarnib 0.025 | mubritinib -0.019

PRXL2B isoform 3 (UniProt Q8TBF2)
inactive: bafetinib 0.015 | [1] -0.068 | nilotinib 0.101 | [2] -0.043 | dasatinib 0.02 | [3] -0.055 | [4] 0.012 | [5] 0.011 | tipifarnib -0.017 | mubritinib 0.036

PYGL (UniProt P06737)
inactive: bafetinib -0.218 | [1] 0.006 | nilotinib -0.202 | [2] 0.036 | dasatinib -0.027 | [3] -0.035 | [4] 0.001 | [5] -0.005 | tipifarnib 0.016 | mubritinib 0.052

PSME1 (UniProt Q06323)
inactive: bafetinib -0.026 | [1] 0.042 | nilotinib -0.001 | [2] -0.001 | dasatinib -0.007 | [3] -0.024 | [4] 0.038 | [5] 0.028 | tipifarnib 0.031 | mubritinib 0.039

PTK2B (UniProt Q14289)
inactive: bafetinib -0.024 | [1] -0.063 | nilotinib 0.14 | [2] 0.104 | dasatinib -0.043 | [3] 0.276 | [4] -0.113 | [5] -0.014 | tipifarnib -0.521 | mubritinib -0.003

QPCTL (UniProt Q9NXS2)
inactive: bafetinib -0.017 | [1] -0.027 | nilotinib -0.045 | [2] 0.03 | dasatinib 0.025 | [3] -0.074 | [4] -0.073 | [5] -0.062 | tipifarnib 0.127 | mubritinib -0.068

PURA (UniProt Q00577)
inactive: bafetinib 0.108 | [1] -0.089 | nilotinib 0.06 | [2] 0.105 | dasatinib 0.335 | [3] 0.017 | [4] -0.382 | [5] -0.12 | tipifarnib 0.207 | mubritinib -0.06

PRTFDC1 (UniProt Q9NRG1)
inactive: bafetinib -0.026 | [1] -0.028 | nilotinib -0.014 | [2] 0.029 | dasatinib 0.028 | [3] -0.016 | [4] -0.006 | [5] 0.002 | tipifarnib 0.049 | mubritinib 0.012

PYCR1 (UniProt J3QKT4)
inactive: bafetinib -0.044 | [1] -0.263

QTRT1 (UniProt Q9BXR0)
inactive: bafetinib -0.009 | [1] -0.03 | nilotinib 0.015 | [2] -0.012 | dasatinib 0.034 | [3] -0.001 | [4] 0.055 | [5] -0.012 | tipifarnib 0.004 | mubritinib 0.043

PSMD1 (UniProt Q99460)
inactive: bafetinib 0.16 | [1] 0.037 | nilotinib 0.006 | [2] 0.041 | dasatinib 0.065 | [3] -0.017 | [4] -0.102 | [5] 0.019 | tipifarnib 0.068 | mubritinib -0.019

PUM1 isoform 3 (UniProt Q14671)
inactive: bafetinib -0.062 | [1] 0.006 | nilotinib -0.047 | [2] -0.066 | dasatinib -0.044 | [3] -0.014 | [4] 0.01 | [5] 0 | tipifarnib -0.015 | mubritinib 0.007

Fetched one by one from above, three records:
PRXL2B isoform 3 (UniProt Q8TBF2)
inactive: bafetinib 0.015 | [1] -0.068 | nilotinib 0.101 | [2] -0.043 | dasatinib 0.02 | [3] -0.055 | [4] 0.012 | [5] 0.011 | tipifarnib -0.017 | mubritinib 0.036

QTRT1 (UniProt Q9BXR0)
inactive: bafetinib -0.009 | [1] -0.03 | nilotinib 0.015 | [2] -0.012 | dasatinib 0.034 | [3] -0.001 | [4] 0.055 | [5] -0.012 | tipifarnib 0.004 | mubritinib 0.043

PRTFDC1 (UniProt Q9NRG1)
inactive: bafetinib -0.026 | [1] -0.028 | nilotinib -0.014 | [2] 0.029 | dasatinib 0.028 | [3] -0.016 | [4] -0.006 | [5] 0.002 | tipifarnib 0.049 | mubritinib 0.012

(further entries)

QRSL1 (UniProt Q9H0R6)
inactive: bafetinib -0.036 | [1] 0.048 | nilotinib -0.041 | [2] -0.028 | dasatinib -0.171 | [3] 0.045 | [4] 0.037 | [5] 0.024 | tipifarnib 0.002 | mubritinib -0.102

PTPA (UniProt A6PVN8)
inactive: bafetinib -0.122 | [1] -0.084 | nilotinib -0.134 | [2] 0.008 | dasatinib 0.075 | [3] 0.013 | [4] -0.075 | [5] 0.05 | tipifarnib 0.232 | mubritinib 0.114

PSMB1 (UniProt P20618)
inactive: bafetinib 0.023 | [1] 0.133 | nilotinib 0.054 | [2] 0.036 | dasatinib 0.023 | [3] 0.005 | [4] -0.03 | [5] -0.026 | tipifarnib 0.008 | mubritinib -0.03

QSOX2 (UniProt Q6ZRP7)
inactive: bafetinib -0.016 | [1] -0.009 | nilotinib -0.016 | [2] 0.023 | dasatinib -0.019 | [3] 0.013 | [4] 0.045 | [5] -0.012 | tipifarnib 0.023 | mubritinib 0.025

PYCR2 (UniProt Q96C36)
inactive: bafetinib 0.005 | [1] 0.038 | nilotinib 0.007 | [2] 0.033 | dasatinib 0.043 | [3] -0.02 | [4] 0.03 | [5] 0.022 | tipifarnib -0.009 | mubritinib 0.045

PTK7 isoform 6 (UniProt Q13308)
inactive: bafetinib -0.101 | [1] -0.107 | nilotinib -0.184 | [2] -0.007 | dasatinib 0 | [3] -0.048 | [4] -0.019 | [5] 0.003 | tipifarnib 0.061 | mubritinib 0.02

PTGES2 (UniProt Q9H7Z7)
inactive: bafetinib -0.055 | [1] 0.005 | nilotinib 0.048 | [2] 0 | dasatinib 0.017 | [3] -0.036 | [4] 0.042 | [5] 0.048 | tipifarnib -0.03 | mubritinib 0.052

PXMP2 (UniProt Q9NR77)
inactive: bafetinib -0.056 | [1] 0.022 | nilotinib -0.002 | [2] 0.024 | dasatinib 0.017 | [3] -0.027 | [4] 0.047 | [5] 0.001 | tipifarnib -0.021 | mubritinib 0.043

PSMC1 (UniProt P62191)
inactive: bafetinib 0.065 | [1] 0.02 | nilotinib -0.025 | [2] 0.062 | dasatinib 0.036 | [3] -0.014 | [4] -0.082 | [5] 0 | tipifarnib 0.087 | mubritinib -0.015

PSMA4 (UniProt P25789)
inactive: bafetinib 0.149 | [1] -0.005 | nilotinib 0.005 | [2] 0.089 | dasatinib 0.056 | [3] 0.011 | [4] -0.068 | [5] -0.014 | tipifarnib 0.046 | mubritinib -0.021

PSMD9 (UniProt O00233)
inactive: bafetinib -0.038 | [1] 0.199 | nilotinib -0.011 | [2] 0.016 | dasatinib 0.037 | [3] 0.008 | [4] 0.018 | [5] 0.034 | tipifarnib 0.04 | mubritinib 0.009

PSMB3 (UniProt P49720)
inactive: bafetinib 0.056 | [1] -0.008 | nilotinib -0.008 | [2] 0.053 | dasatinib 0.051 | [3] -0.023 | [4] -0.059 | [5] 0.015 | tipifarnib 0.039 | mubritinib 0.007

PSMA3 (UniProt P25788)
inactive: bafetinib 0.06 | [1] 0.003 | nilotinib 0.041 | [2] 0.041 | dasatinib 0.029 | [3] 0.008 | [4] -0.003 | [5] -0.005 | tipifarnib 0.006 | mubritinib -0.016
